Data as given in PubChem BioAssay AID1053208 (Peter MacCallum Cancer Centre, 2014).
This is an unselected part of about 17,000 reagents. 788 of all reagents (4.7%) were called active. 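Calls rest on z-score classes alone; an extra cut-off of viability at most 70% of control was not applied to them.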 Reagents against one gene are numbered here. Not all columns of the deposit are shown.

Test: 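Find knock-downs that sensitise mouse osteosarcoma cells to doxorubicin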 (primary screen)
Cell system: mouse osteosarcoma cells, early-passage culture from an engineered mouse model of fibroblastic bone tumour
Knock-down reagent: siRNA pool against mouse genes, 40 nM
Timing: about 120 h (48 h before drug, then 72 h with drug)
Conditions: doxorubicin 100 nM for 72 h, roughly 30-40% inhibitory dose
Measurement: 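Luminescent ATP signal taken as viability with or without 100 nM doxorubicin for 72 h; mean of two wells set against non-targeting siRNA and turned into robust z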
Reading the numbers: viability z-score with doxorubicin: higher = more viable cells under doxorubicin; viability z-score without drug: higher = more viable cells with knock-down alone
Rule for the call: 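a pool counts as active when its viability z-score with doxorubicin is -2 or below and its z-score without drug lies between -2 and 2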

gene | pool no. | combined z-score class | viability z-score with doxorubicin | viability z-score without drug | call
Kifc5b (GeneID 16580) | 1 | no change with or without drug | -1.12 | -0.34 | inactive
Kifc5b (GeneID 16580) | 2 | no change with or without drug | -0.56 | -0.84 | inactive
Timm17a (GeneID 21854) | 1 | no change with or without drug | 0.45 | 0.84 | inactive
Ctns (GeneID 83429) | 1 | no change with or without drug | 0.56 | -0.51 | inactive
Kpna1 (GeneID 16646) | 1 | no change with or without drug | 0 | -0.84 | inactive
Fpr-rs4 (GeneID 14291) | 1 | no change with or without drug | 0.67 | 0.34 | inactive
Cdk1 (GeneID 12534) | 1 | no change with or without drug | -0.22 | -0.51 | inactive
Rbmxl1 (GeneID 19656) | 1 | no change with or without drug | -0.22 | 0.17 | inactive
Asah1 (GeneID 11886) | 1 | no change with or without drug | 1.57 | 0.51 | inactive
Tacstd2 (GeneID 56753) | 1 | no change with or without drug | -0.45 | -1.52 | inactive
Plac9 (GeneID 211623) | 1 | low cell count with doxorubicin only | -2.7 | -0.51 | active
Sptssb (GeneID 66183) | 1 | low cell count without drug only | -1.12 | -2.19 | inactive
Fam98b (GeneID 68215) | 1 | no change with or without drug | 1.35 | 0.51 | inactive
Mogat2 (GeneID 233549) | 1 | no change with or without drug | 0.22 | 0.17 | inactive
Slc16a8 (GeneID 57274) | 1 | low cell count without drug only | -1.12 | -2.19 | inactive
Arid4a (GeneID 238247) | 1 | no change with or without drug | -0.45 | -0.51 | inactive
Bmper (GeneID 73230) | 1 | no change with or without drug | -0.22 | -1.18 | inactive
Matn3 (GeneID 17182) | 1 | no change with or without drug | 1.01 | -1.18 | inactive
Akap8l (GeneID 54194) | 1 | no change with or without drug | -1.69 | -1.18 | inactive
Wnt5a (GeneID 22418) | 1 | no change with or without drug | -0.9 | -1.35 | inactive
Coxfa4 (GeneID 17992) | 1 | no change with or without drug | 0.34 | -1.85 | inactive
Celf4 (GeneID 108013) | 1 | no change with or without drug | 0.67 | 1.52 | inactive
Cdh20 (GeneID 23836) | 1 | no change with or without drug | -0.22 | 1.52 | inactive
Robo3 (GeneID 19649) | 1 | no change with or without drug | 0.79 | -0.17 | inactive
Or5d41 (GeneID 258525) | 1 | low cell count with doxorubicin only | -2.25 | -0.84 | active
Klhdc8a (GeneID 213417) | 1 | no change with or without drug | 0 | 0 | inactive
Zfp282 (GeneID 101095) | 1 | no change with or without drug | 1.12 | 0.51 | inactive
Rgs13 (GeneID 246709) | 1 | low cell count with doxorubicin only | -2.47 | 0 | active
Actg1 (GeneID 11465) | 1 | no change with or without drug | -0.79 | -1.85 | inactive
Slc14a1 (GeneID 108052) | 1 | no change with or without drug | 1.01 | -0.51 | inactive
F630111L10Rik (GeneID 320463) | 1 | no change with or without drug | 1.01 | 1.01 | inactive
D930030K17Rik (GeneID 319422) | 1 | no change with or without drug | -0.22 | -0.51 | inactive
Or2a12 (GeneID 258292) | 1 | no change with or without drug | -1.24 | -1.52 | inactive
Fzd7 (GeneID 14369) | 1 | no change with or without drug | 0.45 | -0.17 | inactive
Dusp18 (GeneID 75219) | 1 | no change with or without drug | 1.12 | 0.51 | inactive
Or5ac25 (GeneID 404311) | 1 | no change with or without drug | 0.45 | 1.52 | inactive
Or5ac25 (GeneID 404311) | 2 | no change with or without drug | -0.34 | 0.67 | inactive
Dld (GeneID 13382) | 1 | no change with or without drug | 0.67 | 0.34 | inactive
Foxc2 (GeneID 14234) | 1 | no change with or without drug | -0.11 | 1.35 | inactive
Rnase2a (GeneID 93726) | 1 | low cell count with doxorubicin only | -2.02 | 1.85 | active
Slc22a3 (GeneID 20519) | 1 | no change with or without drug | 0.11 | 0.84 | inactive
Cyp4f13 (GeneID 170716) | 1 | no change with or without drug | 0.34 | 0.67 | inactive
Polr1c (GeneID 20016) | 1 | low cell count with doxorubicin only | -2.47 | -0.51 | active
Cdk14 (GeneID 18647) | 1 | no change with or without drug | 0.45 | -0.67 | inactive
Ndufb3 (GeneID 66495) | 1 | low cell count without drug only | -1.69 | -3.04 | inactive
Nap1l5 (GeneID 58243) | 1 | no change with or without drug | -1.57 | -0.17 | inactive
Pcsk4 (GeneID 18551) | 1 | low cell count with doxorubicin only | -2.02 | -0.17 | active
Exog (GeneID 208194) | 1 | no change with or without drug | 0 | 0.84 | inactive
Greb1 (GeneID 268527) | 1 | no change with or without drug | -0.34 | -1.18 | inactive
Med10 (GeneID 28077) | 1 | no change with or without drug | -0.22 | -0.17 | inactive

Just “viability z-score with doxorubicin” (6 entries from above):
Kifc5b (GeneID 16580) #1	-1.12
Kifc5b (GeneID 16580) #2	-0.56
Timm17a (GeneID 21854)	0.45
Ctns (GeneID 83429)	0.56
Kpna1 (GeneID 16646)	0
Fpr-rs4 (GeneID 14291)	0.67
